US20070009537A1, “Antimicrobial activity of antibodies producing reactive oxygen species” (priority 2002, published 2007)

Assay: Oxidation of indigo carmine 1 and 18O incorporation into cyclic α-ketoamide 2 by reactive oxygen species

**Q.** Which results are given for `O=[O+][O-]` [Clone O3, ozone]?
**A.** 18O incorporation into 2 (PB 100 mM pH 7.4 with H2 18O (>95%), negative ion ESI-MS): yes; Reaction to form 2 (indigo carmine 1 (1 mM) in PB pH 7.4, room temperature, oxidant conditions per footnotes): Yes
